Assay results reported in PubChem BioAssay AID1259415 (National Center for Advancing Translational Sciences (NCATS), 2018).
Screen size: about 410,000 compounds; about 18,000 (4.4%) were called active. Inconclusive means that the source gave no clear call. Such entries were picked first, then a sample of the others. No stated cut-off is given here; in the data, active means activity change below about -60%; inconclusive means no clear call, values can overlap the other calls; inactive means above about -39%.

assay: qHTS Assay for inhibitors of the human cytomegalovirus (HCMV); conditions: HFF cells, HCMV-luciferase reporter, 72 h; at 57.5 µM; stronger effect = lower value
Outline: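 Inhibition of viral replication was scored as loss of reporter luminescence in HFFs infected with HCMV-luciferase (MOI 1 PFU/cell) for 72 h; compounds tested at 2 doses, normalized to buffer and Salinomycin controls.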
On the % scale 0 is the no-effect control and ±100 the full control effect.

| SMILES | activity change, negative = inhibition |
| --- | --- |
| CSCC(=O)Nc1cc(C)on1 | inactive: 37% |
| O=C(O)Cc1ccc2sc(-c3ccccc3)nc2c1 | inactive: 9.72% |
| COc1cc(C2=Nc3ccc(Br)cc3C(c3ccccc3)N2CC(=O)NN)cc(OC)c1OC (configuration not stated) | inconclusive: -46.4% |
| NNC(=O)c1nc[nH]c1C(=O)Nc1ccccc1[N+](=O)[O-] | inactive: 20% |
| CCC1(c2ccc(F)cc2)NC(=O)N(CC(=O)Nc2ccc(C(N)=O)cc2)C1=O (configuration not stated) | inconclusive: -54.1% |
| O=C(O)c1cc(-c2ccccc2)n(-c2ccc(Cl)cc2Cl)n1 | inactive: -16.2% |
| Cc1ccc(OCC(=O)Nc2ccc(N3CCN(C(=O)c4ccco4)CC3)cc2)cc1C | inconclusive: -41.8% |
| CC(=O)N1CCc2c(sc3c2c(=O)n(-c2ccccc2)c(=O)n3Cc2cccc(C(F)(F)F)c2)C1 | inactive: -18.5% |
| O=[N+]([O-])c1ccc(CN2CCN(c3ncccn3)CC2)cc1 | inconclusive: -44.4% |
| Cc1cccc(Nc2nc(NCc3ccco3)c3ccccc3n2)c1 | active: -94.8% |
| O=C(COC(=O)c1ccc(S(=O)(=O)NCc2ccco2)cc1)Nc1ccc(Cl)cn1 | inactive: -34% |
| CCOC(=O)c1sc(Nc2ccc(F)cc2)nc1C | inconclusive: -46% |
| Cc1c(N)cc(N)cc1C(=O)O | inconclusive: -42.3% |
| CC(=O)Nc1ccc(-c2ccnc3c2CC(C(=O)Nc2ccccc2)O3)cc1 (configuration not stated) | inactive: -14.8% |
| O=C(c1ccccc1)c1c[nH]c(C(=O)NNc2ccccc2)c1 | inconclusive: -40.7% |
| Cc1cc(=O)[nH]c(NN=C2CCCCC2C)n1 (configuration not stated) | inactive: -15% |
| CSc1ccc(Oc2cccc3c2S(=O)(=O)N(C2CC2)C[C@@H](COCc2ccccc2)O3)cc1C | inconclusive: -43.7% |
| CCOc1ccc(-n2c(-c3ccco3)n[nH]c2=S)cc1 | inconclusive: -46.1% |
| COc1cc2c(cc1OC)CN(c1ccc([N+](=O)[O-])cc1C#N)CC2 | inconclusive: -55.9% |
| O=C(NCCNC1CCC(c2ccccc2)CC1)c1cccs1 (configuration not stated) | active: -98.7% |
| COc1ccc(-c2cc(C(=O)NCCc3ccccc3)c3c(-c4ccccc4)[nH]nc3n2)cc1 | active: -82.4% |
| O=C(Cc1ccc(F)cc1)Nc1cccc(-c2nc3cccnc3s2)c1 | inconclusive: -44.6% |

| SMILES | activity change, negative = inhibition |
| --- | --- |
| COc1cc(OC)cc(C(=O)N[C@@H](CCSC)c2nc3ccccc3[nH]2)c1 | inactive: -19.2% |
| O=C(/C=C/c1ccc(F)cc1)NCCCN1CCN(CCCNC(=O)/C=C/c2ccc(F)cc2)CC1 | inconclusive: -44.5% |
| CCCN(c1ccc(C(=O)OC)cc1)S(=O)(=O)c1ccccc1 | inconclusive: -52.3% |
| CC1C(=O)N(Cc2cn(CCC3OCCCO3)nn2)CCS(=O)(=O)N1Cc1ccc(-c2ccc(Cl)c(Cl)c2)cc1 (configuration not stated) | active: -92.3% |
| Cn1c(O)c(C(=Nc2ccccc2)SCc2ccccc2Cl)c(=O)n(C)c1=O | active: -64.9% |
| COc1cc(/C=C2/C(=O)N(c3ccc([N+](=O)[O-])cc3)N=C2N2CCOCC2)ccc1O | inconclusive: -56.2% |
| CCCCN(C(=O)CSc1nnc(-c2ccccc2)o1)c1c(N)n(CCC)c(=O)[nH]c1=O | inconclusive: -42.1% |
| CC(=NNC(=S)N(Cc1ccccn1)Cc1ccccn1)c1cnccn1 | active: -97.9% |
| Cc1nc2ccc(NC(=O)c3nn(CC(C)C)c(=O)c4ccccc34)cc2s1 | active: -62.1% |
| Cc1c(NC(=O)c2ccc(-c3ccc(F)cc3)o2)cccc1-c1nc2ncccc2o1 | inactive: -1.11% |
| Cc1cccc(-c2nnc3n2N=C(c2ccccc2)CS3)c1 | inconclusive: -42% |
| O=c1cc(N2CCC3(CC2)OCCO3)[nH]c(=O)n1-c1ccc(Br)cc1 | inactive: 11.2% |
| Cc1nn(CC(=O)NCCc2ccc(Cl)cc2Cl)c(C)c1[N+](=O)[O-] | inconclusive: -52.3% |
| Cc1cc(/C=C2\SC(=S)N(C)C2=O)c(C)n1-c1cccc(O)c1 | active: -92% |
| O=C1N(c2ccccc2)CCN1c1ccccc1 | inactive: 57.5% |
| Cc1cc(CNC(=O)c2ccc3c(c2)OCO3)c2ccccc2n1 | inconclusive: -41.5% |
| C/C(Cl)=C\Cn1c(O)c(N=O)c2ccccc21 | inconclusive: -53% |
| C=CCNc1nc(Cl)nc(Nc2ccc(OC)cc2)n1 | inactive: 59.8% |
| Cc1ccc(NC(=O)CN2C(=S)NC(C)(C)CC2C)cc1Cl (configuration not stated) | inconclusive: -57.9% |
| O=C(CSc1nnc(Cc2ccccc2)o1)c1ccc(F)cc1 | inconclusive: -44.6% |
| Cc1ccc(-n2ncc(C(=O)N(C)Cc3ccccc3)c2-n2cccc2)cc1 | inconclusive: -47.6% |
| Cc1cnc(-c2nc3ccccc3n2C(C(=O)NC(C)(C)C)c2ccccc2)cn1 (configuration not stated) | inconclusive: -41.8% |

In the list so far, these contain a COOH group.

| SMILES | activity change, negative = inhibition |
| --- | --- |
| O=C(O)Cc1ccc2sc(-c3ccccc3)nc2c1 | inactive: 9.72% |
| O=C(O)c1cc(-c2ccccc2)n(-c2ccc(Cl)cc2Cl)n1 | inactive: -16.2% |
| Cc1c(N)cc(N)cc1C(=O)O | inconclusive: -42.3% |

Carrying on.

| SMILES | activity change, negative = inhibition |
| --- | --- |
| COc1ccc(C(=O)Oc2ccc(F)cc2C(=O)/C=C/c2ccc(OC)c(OC)c2)cc1 | inconclusive: -56.6% |
| O=C(CCSCc1ccccc1F)NCc1cccs1 | inconclusive: -59.5% |
| COC(=O)[C@@]1(Cc2ccc(OC)cc2)[C@H]2c3cc(C(=O)N4CCCC4)n(CCN4CCOCC4)c3C[C@H]2CN1C(=O)c1ccccc1 | inactive: -15.7% |
| O=C(NCc1nc2ccccc2[nH]1)C1=C[C@@H](C2CCCCC2)C[C@@H](OCc2ccc(CO)cc2)O1 | inconclusive: -58.3% |
| Cc1ccc([N+](=O)[O-])cc1N/C=C/C(=O)c1ccco1 | inactive: -10.6% |
| CN(C)Cc1c(C(=O)N/N=C/c2ccccc2OCc2c(F)cccc2Cl)nnn1-c1nonc1N | inconclusive: -50.4% |
| CCn1cc(C(=O)N2CCCC(CO)(Cc3ccccc3C)C2)cn1 (configuration not stated) | inactive: 8.13% |
| Cc1cccc(C(=O)Nc2ccc3c(c2)nc(C)n3C)c1 | active: -102% |
| CC(C)CSc1nsc(N)n1 | inactive: 113% |
| CCN(C(=O)C(C)N1C(=O)/C(=C/c2ccco2)SC1=S)C1CCS(=O)(=O)C1 (configuration not stated) | inconclusive: -44.4% |
| CN(C)c1ccc(C(=S)N2CCN(C(=S)Nc3cccc4ccccc34)CC2)cc1 | inconclusive: -50% |
| COc1cccc(/C=N/Nc2nnc(C)n2N)c1OCc1ccccc1Cl | inactive: -11.5% |
| CC(CC(=O)Nc1ccccc1C(F)(F)F)c1ccccc1 (configuration not stated) | inconclusive: -53.9% |
| CC(CC#CCN1CCOCC1)OCCC#N (configuration not stated) | inconclusive: -49.2% |
| CCCCN(Cc1ccco1)C(=O)C1CCCN(c2ncnc3c2nc2n3CCCCC2)C1 (configuration not stated) | active: -92.9% |
| CCc1cc[n+](C2=C([O-])c3ccccc3C(=O)/C2=N\S(=O)(=O)c2cccs2)cc1 | inconclusive: -58.2% |
| CC1=C(C(=O)OC2CCCC2)C(c2ccc(Cl)cc2)CC(=O)N1 (configuration not stated) | inconclusive: -44.5% |
| Cc1cc(C)cc(NC(=O)CN(c2cccc(C)c2C)S(=O)(=O)c2ccccc2)c1 | inconclusive: -51.8% |
| CCn1nc(C(C)C)cc1C(=O)N1CCCC(CO)(Cc2ccc(F)cc2F)C1 (configuration not stated) | inconclusive: -44.7% |
| Cc1ccc(N(CC(=O)NCc2ccncc2)S(C)(=O)=O)cc1Cl | inactive: 25.2% |
| COc1cc(/C=C/C(=O)N(Cc2ccccc2)c2ccccn2)cc(OC)c1OC | inactive: 21.5% |
| Cc1ccc(S(=O)(=O)N2CCC(C(=O)NCCCN3CCCC3=O)CC2)cc1 | inconclusive: -54.5% |

Grouped by structure, the entries above with a CF3 group (two)

| SMILES | activity change, negative = inhibition |
| --- | --- |
| CC(=O)N1CCc2c(sc3c2c(=O)n(-c2ccccc2)c(=O)n3Cc2cccc(C(F)(F)F)c2)C1 | inactive: -18.5% |
| CC(CC(=O)Nc1ccccc1C(F)(F)F)c1ccccc1 (configuration not stated) | inconclusive: -53.9% |

(more compounds)

| SMILES | activity change, negative = inhibition |
| --- | --- |
| Cc1nc(NC(=O)/C=C/c2ccccc2)n[nH]1 | active: -96.3% |
| CN(CC(O)COc1ccccc1F)C1CCCCC1 (configuration not stated) | inactive: 10.9% |
| CSC(=Nc1ccccc1)N=C(SCc1ccccc1)N(C)C | active: -101% |
| CNS(=O)(=O)c1cc2c3c(cccc3c1)C(=O)NC2=O | inconclusive: -40.1% |
| COC(=O)C1(Cc2cc(-c3cccnc3)no2)CCN(C(=O)OC(C)(C)C)CC1 | inactive: -21.7% |
| O=C(NCc1ccc(F)cc1)c1cc(C2CCCN(C(=O)c3ccccn3)C2)on1 (configuration not stated) | inactive: -31.4% |
| COc1ccc2c(CC(=O)Nc3ncc(C)s3)coc2c1 | active: -77.5% |
| CN(C)c1ccc(/C=N/NC(=O)c2nnn(-c3nonc3N)c2CN(C)c2ccccc2)cc1 | inconclusive: 0% |
| COc1cc(-c2nc(CN3CCN(CC(C)C)C(=O)[C@@H]3C)c(C)o2)ccc1F | inconclusive: -58.7% |
| O=S(=O)(NCC1CCCO1)c1ccc(S(=O)(=O)N(Cc2ccc(F)cc2)Cc2ccccn2)cc1 (configuration not stated) | inconclusive: -43.5% |
| CC(=O)Nc1cccc(C(=O)N2CCN(S(=O)(=O)c3ccc(C4CCCCC4)cc3)CC2)c1 | inconclusive: -41.4% |
| CC(=O)Nc1cccc(OCCCNC(=O)c2cccc3ccccc23)c1 | inactive: 13.5% |
| Cc1cc(C)cc(NC(=O)c2cc3c(=O)n(Cc4ccco4)ccc3nc2C)c1 | inconclusive: -45.9% |
| CC(=O)c1cccc(NC(=O)c2csc3c2CCCCC3)c1 | inactive: -21.8% |
| CCCc1ccc2oc(C(=O)N(C)Cc3cnccn3)c(C)c2c1 | inactive: 29.3% |
| COc1ccc(OC)c(NC(=O)C2CCN(Cc3cnn(-c4ccccc4)c3-n3cccc3)CC2)c1 | inactive: 11.6% |
| Cc1ccc(Cl)cc1N1CCN(C(=O)C2CCN(S(=O)(=O)c3c(C)noc3/C=C/c3ccccc3F)CC2)CC1 | inactive: -39% |
| CCOc1ccc(NC(=O)C[n+]2ccc(N(C)C)cc2)cc1 | active: -97.2% |
| COc1ccc(Cl)cc1NC(=O)CN(C1CCCCC1)S(C)(=O)=O | inactive: 24% |
| COc1ccc(N(C(=O)c2cccnc2)S(=O)(=O)c2cccc([N+](=O)[O-])c2)cc1 | inconclusive: -40.4% |
| O=S(=O)(c1ccc(Br)cc1)N1CCn2cccc2C1c1ccc(Br)cc1 (configuration not stated) | inactive: -21.7% |
